Laboratory results taken from US20210230279A1.
These are yes or no findings as the source states them, for the method shown. Some entries that bind do so weakly or less than the wild type.

Sequences of proteins named here, by UniProt entry; tags and fusion partners are left off. A change or cut given only in a name is not applied to a line headed by its entry.
UniProt P26012: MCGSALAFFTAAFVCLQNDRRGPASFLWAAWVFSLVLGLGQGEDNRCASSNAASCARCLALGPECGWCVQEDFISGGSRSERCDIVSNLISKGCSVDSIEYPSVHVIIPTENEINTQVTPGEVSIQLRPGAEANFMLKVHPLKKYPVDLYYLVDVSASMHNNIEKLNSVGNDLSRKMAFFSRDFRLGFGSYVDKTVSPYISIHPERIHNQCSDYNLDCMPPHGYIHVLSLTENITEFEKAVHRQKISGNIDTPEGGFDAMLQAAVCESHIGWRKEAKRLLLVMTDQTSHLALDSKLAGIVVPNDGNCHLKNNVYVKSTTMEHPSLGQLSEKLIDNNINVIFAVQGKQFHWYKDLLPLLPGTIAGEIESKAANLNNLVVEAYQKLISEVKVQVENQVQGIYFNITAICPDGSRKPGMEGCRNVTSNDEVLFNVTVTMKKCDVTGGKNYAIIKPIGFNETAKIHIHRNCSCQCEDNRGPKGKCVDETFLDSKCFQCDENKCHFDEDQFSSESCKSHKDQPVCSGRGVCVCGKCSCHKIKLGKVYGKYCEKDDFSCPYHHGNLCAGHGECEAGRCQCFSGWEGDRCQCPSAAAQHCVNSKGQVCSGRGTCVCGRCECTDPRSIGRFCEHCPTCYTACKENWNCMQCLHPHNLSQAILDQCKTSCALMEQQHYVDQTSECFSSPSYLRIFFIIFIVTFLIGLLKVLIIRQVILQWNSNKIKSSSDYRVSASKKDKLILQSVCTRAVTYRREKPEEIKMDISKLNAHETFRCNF

Legend:
[1] = target: human integrin β8 subunit (human) (UniProt P26012); experiment: staining of formalin-fixed paraffin-embedded tissue, rabbit IgG format
[2] = target: human integrin β8 subunit (human) (UniProt P26012); experiment: staining of formalin-fixed paraffin-embedded tissues
[3] = target: human integrin β8 subunit (human) (UniProt P26012); experiment: immunostaining of human stomach biopsies (FIG. 21 and 22)

Row | Binder | binding [1] | binding [2] | binding [3]
1 | clone C4 as rabbit IgG (antibody, V domains shown) VH: QVQLQQSGAELVRPGTSVKVSCKASGYAFTDYLIEWVRQRPGQGLEWIGVINPETGGTNYNAKFRGRATLTADKSSSSAYMQLSSLTSGDSAVYFCAREAGNYIYAMDYWGQGTSVTVSS VL: DIVMTQSPASLSASVGETVTITCRASVNIYSYLVWYQQKQGKSPQLLVHNAKTLAEGVPSRFSGSGSGTQFSLKINSLQPEDFGSYYCQHHHGTPYTFGGGTKLEIKR | binds | – | –
2 | clone D10 as rabbit IgG (antibody, V domains shown) VH: QVQLQQSGAELVRPGTSVKVSCKASGYAFTDYLIEWVRQRPGQGLEWIGVINPETGGTNYNAKFRGKVTLTADKTSSSAYMQLSSLTSGDSAVYFCAREAGNYIYAMDYWGQGTSVTVSS VL: DIEMTQTPASLSASVGETVTITCRASVNIYSYLVWYQQKQGKSPQLLVHNAKTLAEGVPSRFSGSGSGTQFSLKINSLQPEDFGSYYCQHHHGTPYTFGGGTKLEIKR | binds | – | –
3 | clone F9 in IgG format (antibody, V domains shown) VH: QVQLQQSGAELVRPGTSVKVSCKASGYAFTDYLIQWVKQRPGQGLEWIGVINPETGGTNYNAKFRGKATLTADKSSSSAYMQLSSLTSGDSAVYFCAREAGNYIYAMDYWGQGTSVTVSS VL: DIVMTQSPAFLSASVGETVTITCRASVNIYSYLVWYQQKQGKSPQLLVHNAKTLAEGVPSRFSGSGSGTQFSLKINSLQPEDFGSYYCQHHHGTPYTFGGGTKLEIKR | – | binds | binds
